Measured values published in patent US20040058393A1 (published 2004).
No constants are given. Whether binding was seen depends on the method and setting. Some results given as binding are weak or reduced against the parent protein; the word gives no strength.

The chains behind the UniProt entries cited, without tags or fusion partners. Residues count along the entry.
UniProt Q08722, residues 19-323: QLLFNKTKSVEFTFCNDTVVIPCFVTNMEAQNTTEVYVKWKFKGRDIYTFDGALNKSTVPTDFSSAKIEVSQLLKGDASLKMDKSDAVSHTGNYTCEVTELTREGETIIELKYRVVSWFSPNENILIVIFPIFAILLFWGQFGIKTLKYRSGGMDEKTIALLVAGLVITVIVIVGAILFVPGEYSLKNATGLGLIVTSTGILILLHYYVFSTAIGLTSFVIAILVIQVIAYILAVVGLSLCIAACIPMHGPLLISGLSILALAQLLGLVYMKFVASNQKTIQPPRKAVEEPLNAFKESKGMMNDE

B1: MABL2-scFv <HL-3> (scFv)
scFv: QVQLQQSGPELVKPGASVKMSCKASGYTFANHVIHWVKQKPGQGLEWIGYIYPYNDGTKYNEKFKDKATLTSDKSSTTAYMDLSSLASEDSAVYYCARGGYYTYDDWGQGTTLTVSSGGSDVVMTQSPLSLPVSLGDQASISCRSSQSLVHSNGKTYLHWYLQKPGQSPKLLIYKVSNRFSGVPDRFSGSGSVTDFTLMISRVEAEDLGVYFCSQSTHVPYTFGGGTKLEIKDYKDDDDK
B2: MABL2-scFv <HL-4> (scFv)
scFv: QVQLQQSGPELVKPGASVKMSCKASGYTFANHVIHWVKQKPGQGLEWIGYIYPYNDGTKYNEKFKDKATLTSDKSSTTAYMDLSSLASEDSAVYYCARGGYYTYDDWGQGTTLTVSSGGGSDVVMTQSPLSLPVSLGDQASISCRSSQSLVHSNGKTYLHWYLQKPGQSPKLLIYKVSNRFSGVPDRFSGSGSVTDFTLMISRVEAEDLGVYFCSQSTHVPYTFGGGTKLEIKDYKDDDDK
B3: MABL2-scFv <HL-5> (COS7 culture supernatant) (scFv)
scFv: QVQLQQSGPELVKPGASVKMSCKASGYTFANHVIHWVKQKPGQGLEWIGYIYPYNDGTKYNEKFKDKATLTSDKSSTTAYMDLSSLASEDSAVYYCARGGYYTYDDWGQGTTLTVSSGGGGSDVVMTQSPLSLPVSLGDQASISCRSSQSLVHSNGKTYLHWYLQKPGQSPKLLIYKVSNRFSGVPDRFSGSGSVTDFTLMISRVEAEDLGVYFCSQSTHVPYTFGGGTKLEIKDYKDDDDK
B4: MABL2-scFv <HL-6> (scFv)
scFv: QVQLQQSGPELVKPGASVKMSCKASGYTFANHVIHWVKQKPGQGLEWIGYIYPYNDGTKYNEKFKDKATLTSDKSSTTAYMDLSSLASEDSAVYYCARGGYYTYDDWGQGTTLTVSSGGGGGSDVVMTQSPLSLPVSLGDQASISCRSSQSLVHSNGKTYLHWYLQKPGQSPKLLIYKVSNRFSGVPDRFSGSGSVTDFTLMISRVEAEDLGVYFCSQSTHVPYTFGGGTKLEIKDYKDDDDK
B5: MABL2-scFv <HL-7> (scFv)
scFv: QVQLQQSGPELVKPGASVKMSCKASGYTFANHVIHWVKQKPGQGLEWIGYIYPYNDGTKYNEKFKDKATLTSDKSSTTAYMDLSSLASEDSAVYYCARGGYYTYDDWGQGTTLTVSSGGGGGGSDVVMTQSPLSLPVSLGDQASISCRSSQSLVHSNGKTYLHWYLQKPGQSPKLLIYKVSNRFSGVPDRFSGSGSVTDFTLMISRVEAEDLGVYFCSQSTHVPYTFGGGTKLEIKDYKDDDDK
B6: MABL2-scFv <LH-3> (scFv)
scFv: DVVMTQSPLSLPVSLGDQASISCRSSQSLVHSNGKTYLHWYLQKPGQSPKLLIYKVSNRFSGVPDRFSGSGSVTDFTLMISRVEAEDLGVYFCSQSTHVPYTFGGGTKLEIKSGGQVQLQQSGPELVKPGASVKMSCKASGYTFANHVIHWVKQKPGQGLEWIGYIYPYNDGTKYNEKFKDKATLTSDKSSTTAYMDLSSLASEDSAVYYCARGGYYTYDDWGQGTTLTVSSDYKDDDDK
B7: MABL2-scFv <LH-4> (scFv)
scFv: DVVMTQSPLSLPVSLGDQASISCRSSQSLVHSNGKTYLHWYLQKPGQSPKLLIYKVSNRFSGVPDRFSGSGSVTDFTLMISRVEAEDLGVYFCSQSTHVPYTFGGGTKLEIKSGGGQVQLQQSGPELVKPGASVKMSCKASGYTFANHVIHWVKQKPGQGLEWIGYIYPYNDGTKYNEKFKDKATLTSDKSSTTAYMDLSSLASEDSAVYYCARGGYYTYDDWGQGTTLTVSSDYKDDDDK
B8: MABL2-scFv <LH-5> (scFv)
scFv: DVVMTQSPLSLPVSLGDQASISCRSSQSLVHSNGKTYLHWYLQKPGQSPKLLIYKVSNRFSGVPDRFSGSGSVTDFTLMISRVEAEDLGVYFCSQSTHVPYTFGGGTKLEIKSGGGGQVQLQQSGPELVKPGASVKMSCKASGYTFANHVIHWVKQKPGQGLEWIGYIYPYNDGTKYNEKFKDKATLTSDKSSTTAYMDLSSLASEDSAVYYCARGGYYTYDDWGQGTTLTVSSDYKDDDDK
B9: MABL2-scFv <LH-6> (scFv)
scFv: DVVMTQSPLSLPVSLGDQASISCRSSQSLVHSNGKTYLHWYLQKPGQSPKLLIYKVSNRFSGVPDRFSGSGSVTDFTLMISRVEAEDLGVYFCSQSTHVPYTFGGGTKLEIKSGGGGGQVQLQQSGPELVKPGASVKMSCKASGYTFANHVIHWVKQKPGQGLEWIGYIYPYNDGTKYNEKFKDKATLTSDKSSTTAYMDLSSLASEDSAVYYCARGGYYTYDDWGQGTTLTVSSDYKDDDDK
B10: MABL2-scFv <LH-7> (scFv)
scFv: DVVMTQSPLSLPVSLGDQASISCRSSQSLVHSNGKTYLHWYLQKPGQSPKLLIYKVSNRFSGVPDRFSGSGSVTDFTLMISRVEAEDLGVYFCSQSTHVPYTFGGGTKLEIKSGGGGGGQVQLQQSGPELVKPGASVKMSCKASGYTFANHVIHWVKQKPGQGLEWIGYIYPYNDGTKYNEKFKDKATLTSDKSSTTAYMDLSSLASEDSAVYYCARGGYYTYDDWGQGTTLTVSSDYKDDDDK

biological target: human Integrin Associated Protein (IAP) expressed on mouse leukemia cell line L1210 (human) (UniProt Q08722); assay: flow cytometry, COS7 supernatant on hIAP/L1210 cells

Binder	binding
B1	binds
B2	binds
B3	binds
B4	binds
B5	binds
B6	binds
B7	binds
B8	binds
B9	binds
B10	binds

biological target: human Integrin Associated Protein (IAP) expressed on mouse leukemia cell line L1210 (human) (UniProt Q08722); assay: flow cytometry, COS7 supernatant on hIAP/L1210 cells, anti-FLAG and FITC anti-mouse IgG

Binder	binding
B1	binds
B2	binds
B3	binds
B4	binds
B5	binds
B6	binds
B7	binds
B8	binds
B9	binds
B10	binds
